# From patent US7919481B2, “Inositol pyrophosphates, and methods of use thereof” (NormOxys, Inc., priority 2002, dated 2011)
# Protein sequences, listed by entry. Tags and fused reporters are not part of them. Residues count along the entry.
# UniProt P68871, 2-147 limits assumed: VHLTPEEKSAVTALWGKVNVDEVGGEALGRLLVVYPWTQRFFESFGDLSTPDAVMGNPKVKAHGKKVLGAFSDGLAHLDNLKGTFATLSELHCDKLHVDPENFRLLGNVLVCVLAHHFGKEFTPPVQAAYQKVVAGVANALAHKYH
# Some of these results come from one statement about several compounds together.
# Tests used:
# [1] = test system: circulating RBC; experiment: P50 shift of circulating RBC after (intraperitoneal) injection in mice; conditions: 45 mM solution injected, 2 animals; maximum
# [2] = test system: whole blood; experiment: P50 increase of whole blood (effectors of Tables 1-4); format: cell-based; conditions: maximum over the named effectors
# [3] = molecular target: free hemoglobin (Homo sapiens, UniProt P68871); experiment: P50 increase of free hemoglobin (effectors of Tables 1-4); format: biochemical; conditions: maximum over the named effectors
substance,measurement,setting,value
"IHP Cholesteryoxy Carbonyl Hepta N,N-Dimethyl Cyclohexyl Ammonium Salt [kf16.3]",right shift of the whole circulating blood,[1],up to 22%
same,percentage of P50 increase in whole blood,[2],up to 48%
same,percentage of P50 increase in hemoglobin,[3],up to 225%
